Results taken from patent US8551921B2, “Method for determining the toxicity of an environmental or chemical sample” (priority 2000, dated 2013).

tested on: 11 microbial strains; assay: MARA plate Example 3, overall (11 microbial strains) and data base comparison; format: cell-based; conditions: similarity value between the fingerprint of the unknown compound of Example 3 and that of the named known compound

SMILES	Highest similarity of toxic fingerprint to known compounds in data base
OCCO [Ethylene Glycol]	0.10
OO [Hydrogen peroxide]	0.30
Oc1ccccc1 [Phenol]	0.60
